Results: PubChem BioAssay AID2685 (National Center for Advancing Translational Sciences (NCATS), 2010)
The other results are listed elsewhere or left out. These are further read-outs of the screen, such as a control signal, another cell line or another target. No call is given for them. Most of these compounds were active or inconclusive in the main read-out, so they are no random draw. The note in brackets gives the kind of curve behind each potency; many fits are weak.

Experiment: qHTS Assay for Lipid Storage Modulators in Drosophila S3 Cells;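 for cell number change: cells counted by Cell Tracker Red CMTPX staining in the red channel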
Conditions: BODIPY lipid droplet fluorescence, 18-24 h; for cell number change: measured here: cell count max response, cells fed with added oleic acid
Method in brief: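 Drosophila S3 cells got compounds at several concentrations plus oleic acid (400 uM solution). Laser-scanning cytometry with 488 nm excitation read lipid droplets at 500-530 nm and cells at 575-640 nm. Percent activity was relative to 20 uM Triacsin C.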

[1] = measured here: lipid fluorescence (Fed channel) AC50, cells fed with added oleic acid
[2] = measured here: cell number channel AC50, cells fed with added oleic acid

| SMILES | cell number change [%] | AC50 [1] | AC50 [2] |
| --- | --- | --- | --- |
| CC1CCCCN1C(=O)COC(=O)C1CCN(S(=O)(=O)c2ccc(Cl)c(C(F)(F)F)c2)CC1 (stereo not drawn) | 7.15 |  |  |
| CC(C)CN(CC(C)C)CC(O)COc1ccc([N+](=O)[O-])cc1 (stereo not drawn) | -5.81 | 1.3 µM [falling, partial curve] |  |
| O=C(NCCc1ccc(F)cc1)c1ccc(S(=O)(=O)N2CCCC2)cc1 | 6.53 | 0.116 µM [rising, full curve, poor fit] |  |
| O=C1c2cccnc2C(=O)N1c1ccccc1-c1ccccc1 | 36.4 |  | 0.013 µM [rising, full curve, poor fit] |
| COc1ccc(C(=O)Nc2ccccc2C(=O)N/N=C/c2ccccn2)cc1OC | -15.1 | 16.4 µM [falling, single point] |  |
| COc1ccc2nc(/C=N/NC(=O)CCNC(=O)OC(C)(C)C)ccc2c1 | -14.1 | 32.6 µM [falling, single point] |  |
| Cc1nn(CC(=O)NCCCN2CCCCC2C)c(=O)c2cccn12 (stereo not drawn) | 0.597 |  |  |
| CCCN(CCC)S(=O)(=O)c1ccc(C(=O)OCCN2C(=O)c3cccc4c(N5CCOCC5)ccc(c34)C2=O)cc1 | 10.1 |  | 7.31 µM [rising, single point] |
| O=C(Nc1ccccc1Cl)N1CCN(c2ccc3nncn3n2)CC1 | 18.2 | 0.461 µM [falling, full curve] |  |
| Cc1c(CCO)c(=O)[nH]n1S(=O)(=O)c1ccccc1 | -41.5 |  | 0.00517 µM [falling, full curve, poor fit] |
| CC1CCCCC1NC(=O)CCS(=O)(=O)c1cc2c(cc1Cl)NC(=O)CO2 (stereo not drawn) | 14.3 | 29.1 µM [rising, single point] |  |
| S=C(NCCc1ccccn1)Nc1ccc(Cl)cc1 | -9.79 | 8.2 µM [rising, partial curve] |  |
| Cc1ccc(S(=O)(=O)N2CCCCC2)cc1NC(=O)COC(=O)c1ccc(O)cc1 |  | 6.51 µM [rising, single point] | 0.092 µM [falling, full curve, poor fit] |
| CCOC(=O)Cc1csc(NC(=O)c2c(O)c3c(n(CC(C)C)c2=O)CCCC3)n1 | -6.91 | 0.116 µM [falling, full curve, poor fit] |  |
| Cc1ccc(NS(=O)(=O)c2ccc(C(=O)N3CCC3)cc2)cc1 | 20.1 |  |  |
| Cc1ccc(-c2nc(CS(=O)(=O)CC(=O)N3CCN(C)CC3)c(C)o2)cc1 | -6.08 |  |  |
| O=C(NC1CC1)C1CCN(S(=O)(=O)c2ccc(Cl)cc2)CC1 | -6.67 | 1.16 µM [falling, single point] |  |
| Cc1ccccc1NC(=O)OCc1cn(-c2ccc(Cl)cc2)nn1 | -46.2 |  | 23.1 µM [falling, partial curve, poor fit] |
| COc1nc(-c2ccccc2)ccc1-c1noc(-c2cccnc2)n1 | -19.1 | 2.06 µM [falling, partial curve] |  |
| O=C(NC(=O)c1ccc(Cl)cc1)Nc1ccc(-c2cnco2)cc1 | 27.9 | 13 µM [rising, partial curve, poor fit] |  |

Among those listed so far, two contain fluorine:

| SMILES | cell number change [%] | AC50 [1] | AC50 [2] |
| --- | --- | --- | --- |
| CC1CCCCN1C(=O)COC(=O)C1CCN(S(=O)(=O)c2ccc(Cl)c(C(F)(F)F)c2)CC1 (stereo not drawn) | 7.15 |  |  |
| O=C(NCCc1ccc(F)cc1)c1ccc(S(=O)(=O)N2CCCC2)cc1 | 6.53 | 0.116 µM [rising, full curve, poor fit] |  |

Following part.

| SMILES | cell number change [%] | AC50 [1] | AC50 [2] |
| --- | --- | --- | --- |
| CCc1ccccc1NC(=O)c1ccc2c(c1)CCN2S(C)(=O)=O | 38.2 |  | 29.1 µM [rising, single point] |
| O=C(CC1C(=O)NCCN1C1CCCC1)NCc1cccc(OC(F)(F)F)c1 (stereo not drawn) | -23.8 | 0.58 µM [rising, single point] |  |
| Cc1cccc(NC(=O)CNC(=O)N2CC(=O)Nc3ccccc32)c1C | 20.8 |  | 0.0517 µM [rising, full curve, poor fit] |
| CC(=O)c1cnc2cc(-c3ccc(Cl)cc3)nn2c1C | 52.9 |  | 18.4 µM [rising, single point] |
| Clc1ccc(OCc2cc(-c3ccccc3)no2)cc1Cl | 72.5 | 10.3 µM [rising, partial curve] | 1.84 µM [rising, full curve] |
| COc1cc(/C=C/C(=O)c2ccccc2O)cc(OC)c1OC | -8.66 | 32.6 µM [falling, single point] | 6.51 µM [falling, single point] |
| CCCCCn1c(=S)[nH]c2cc(C(=O)N3CCCC3)ccc2c1=O |  |  | 0.82 µM [falling, full curve, poor fit] |
| CCn1c(SCC(=O)N/N=C/c2ccc(O)c(OC)c2)nc2ccccc21 | 18.6 | 23.1 µM [rising, single point] |  |
| COc1cccc(NC(=O)C(C)OC(=O)CCCNC(=O)c2ccc(Cl)cc2)c1 (stereo not drawn) | 5.5 | 0.058 µM [falling, full curve, poor fit] |  |
| Cc1ccc(CNC(=O)c2cn(C)c(=O)c3c2c2ccccc2n3C)o1 | 13.6 |  |  |
| C=C(C)CC1Nc2ccccc2NC1CC(=C)C (stereo not drawn) | 4.3 | 32.6 µM [rising, single point] |  |
| COc1ccc(C2CCCN2C(=O)Nc2cccc(C(C)=O)c2)cc1OC (stereo not drawn) |  |  | 6.51 µM [rising, single point] |
| CCCn1nc(Oc2nc(SC)nc(N(C)C)n2)ccc1=O | -1.71 | 0.366 µM [falling, partial curve, poor fit] |  |
| Cc1cc(C(=O)C(=O)O)c(C)n1-c1ccc(Cl)c(Cl)c1 | -1.54 | 0.146 µM [falling, full curve, poor fit] | 0.103 µM [falling, full curve, poor fit] |
| CCc1cccc(OCC(=O)Nc2ccc(C)c(S(=O)(=O)N3CCCCCC3)c2)c1 |  | 29.1 µM [falling, single point] |  |
| Cc1noc(C)c1S(=O)(=O)N1CCC(C(=O)Nc2ccc(Br)cc2)CC1 |  | 2.06 µM [rising, partial curve] |  |
| O=C(COC(=O)Cc1ccc(Cl)cc1)Nc1ccc(OC(F)F)cc1 | 15.8 | 0.92 µM [rising, partial curve] |  |
| O=C(Cn1ncc2c3ccccc3n(Cc3ccccc3)c2c1=O)NCCN1CCOCC1 | 4.72 | 0.206 µM [falling, full curve, poor fit] |  |
| Cc1cccc(CSCCNC(=O)c2ccc(CN3CCOCC3)cc2)c1 | -1.08 |  |  |
| COc1ccccc1N1CCN(C(=O)CCCC2=NS(=O)(=O)c3ccccc3N2)CC1 | 0.702 | 16.4 µM [rising, single point] |  |
